Where “and” joins values, the source holds several entries; their conditions need not be identical. Equal entries are not always repeated. Not every detail of the peptide structures is certain; ends, links or a residue may be inferred. Positions of bridges follow the written chain, without caps; N, C: chain ends. Residues, ends and D or L forms follow the SMILES beside them. *: point of attachment. DOTA = O=C(O)CN1CCN(CC(=O)O)CCN(CC(=O)*)CCN(CC(=O)O)CC1
Experiments:
[1] = Stability of ^177Lu-radiolabelled Compounds 3 and 4 by HPLC 24 hours after radiolabelling (optimisation study); assay type: physicochemical; conditions: in solution, buffer 2 pH 4, listed as Compound 3-^177Lu radioconjugate
[2] = Stability of the ^177Lu-Compound 3 injection solution (clinical study); assay type: physicochemical; conditions: after 24 hours at room temperature

## CC(=O)N[C@@H](C)C(=O)NCC(=O)N[C@@H](CO)C(=O)N[C@H]1CSSC[C@@H](C(=O)N[C@@H](Cc2ccc(O)cc2)C(=O)N[C@@H](CCC(=O)O)C(=O)N[C@H](C(=O)N[C@@H](CCC(=O)O)C(=O)NCC(=O)N[C@H](C(=O)NCC(=O)NCC(=O)NCC(=O)N[C@@H](CCCCNC(=O)CN2CCN(CC(=O)O)CCN(CC(=O)O)CCN(CC(=O)O)CC2)C(N)=O)[C@@H](C)O)[C@@H](C)O)NC(=O)[C@H](Cc2c[nH]c3ccccc23)NC(=O)[C@@H]2CSSC[C@H](NC(=O)[C@H](Cc3ccc(O)cc3)NC1=O)C(=O)N[C@@H](CO)C(=O)NCC(=O)N1CCC[C@H]1C(=O)N1CCC[C@H]1C(=O)N[C@@H](CCCNC(=N)N)C(=O)N[C@@H](Cc1ccccc1)C(=O)N[C@@H](CCC(=O)O)C(=O)N2 [^177Lu-Compound 3, metal not drawn] (Ac-AGSCYCSGPPRFECWCYETEGTGGGK(DOTA)-NH2; disulfide 4-16, 6-14)
[1]; specific activity targeted 120 MBq/nmol
  Radiochemical Purity, RCP at 24 hrs (HPLC): 94.6% and 91.9% and 93.6%
[1]; specific activity targeted 150 MBq/nmol
  Radiochemical Purity, RCP at 24 hrs (HPLC): 90.2% and 93.2% and 93.3%
[2]
  radiochemical purity of the injection solution: > 98%
  two unknown impurities in the injection solution: < 2%

— patent US20220273830A1, “COMPOUNDS AND METHODS OF USE” (EDINBURGH MOLECULAR IMAGING LIMITED, priority 2019, published 2022)
